{"source": "PubChem BioAssay AID1159584 (Peter MacCallum Cancer Centre, 2016)", "purpose": "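Genes that CDH1-null MCF10A cells selectively depend on to survive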 (primary screen)", "cell system": "human MCF10A breast epithelial cells, parental and CDH1-null", "knock-down reagent": "siRNA against human genes", "measured": "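ATP luminescence (CellTiter-Glo) viability per line relative to mean mock wells over all plates, and the ratio of CDH1-null to parental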", "reading the numbers": "CDH1-null / parental viability ratio: higher = CDH1-null cells survive relatively better than parental; CDH1-null viability vs mock: higher = more viable CDH1-null cells", "units": "CDH1-null viability vs mock in fraction of mock", "note": "This is a random part of about 18,000 reagents. Not all columns of the deposit are shown. The record does not give: the amount of reagent, the time to read-out."}
{"Target gene": "TRIP13", "PubChem SID": "SID152147633", "CDH1-null / parental viability ratio": 0.88, "CDH1-null viability vs mock": 0.9}
{"Target gene": "RBM48", "PubChem SID": "SID135622818", "CDH1-null / parental viability ratio": 0.96, "CDH1-null viability vs mock": 0.92}
{"Target gene": "ACOT7", "PubChem SID": "SID152154487", "CDH1-null / parental viability ratio": 0.93, "CDH1-null viability vs mock": 0.88}
{"Target gene": "HABP2", "PubChem SID": "SID134311320", "CDH1-null / parental viability ratio": 0.96, "CDH1-null viability vs mock": 0.9}
{"Target gene": "CD180", "PubChem SID": "SID134323763", "CDH1-null / parental viability ratio": 1.34, "CDH1-null viability vs mock": 0.51}
{"Target gene": "ARHGEF3", "PubChem SID": "SID134317474", "CDH1-null / parental viability ratio": 1.08, "CDH1-null viability vs mock": 0.9}
{"Target gene": "UCK1", "PubChem SID": "SID56478768", "CDH1-null / parental viability ratio": 0.88, "CDH1-null viability vs mock": 0.64}
{"Target gene": "IGLL3P", "PubChem SID": "SID135624460", "CDH1-null / parental viability ratio": 1.48, "CDH1-null viability vs mock": 0.86}
{"Target gene": "MTHFD1L", "PubChem SID": "SID152156442", "CDH1-null / parental viability ratio": 1.01, "CDH1-null viability vs mock": 0.89}
{"Target gene": "PRSS42P", "PubChem SID": "SID134313845", "CDH1-null / parental viability ratio": 1.62, "CDH1-null viability vs mock": 0.86}
{"Target gene": "RANBP3", "PubChem SID": "SID134315819", "CDH1-null / parental viability ratio": 0.81, "CDH1-null viability vs mock": 0.88}
{"Target gene": "SCN1A", "PubChem SID": "SID152147957", "CDH1-null / parental viability ratio": 1.12, "CDH1-null viability vs mock": 0.94}
{"Target gene": "C20orf144", "PubChem SID": "SID134319321", "CDH1-null / parental viability ratio": 0.71, "CDH1-null viability vs mock": 0.52}
{"Target gene": "LGSN", "PubChem SID": "SID134313303", "CDH1-null / parental viability ratio": 0.93, "CDH1-null viability vs mock": 0.91}
{"Target gene": "LRRC7", "PubChem SID": "SID135622662", "CDH1-null / parental viability ratio": 1.06, "CDH1-null viability vs mock": 1.06}
{"Target gene": "SLC25A37", "PubChem SID": "SID152151238", "CDH1-null / parental viability ratio": 0.89, "CDH1-null viability vs mock": 0.84}
{"Target gene": "CCNB2", "PubChem SID": "SID56478568", "CDH1-null / parental viability ratio": 0.68, "CDH1-null viability vs mock": 0.54}

3 entries from above, arranged by “CDH1-null / parental viability ratio”, ascending.
{"Target gene": "C20orf144", "PubChem SID": "SID134319321", "CDH1-null / parental viability ratio": 0.71, "CDH1-null viability vs mock": 0.52}
{"Target gene": "LGSN", "PubChem SID": "SID134313303", "CDH1-null / parental viability ratio": 0.93, "CDH1-null viability vs mock": 0.91}
{"Target gene": "SCN1A", "PubChem SID": "SID152147957", "CDH1-null / parental viability ratio": 1.12, "CDH1-null viability vs mock": 0.94}

Next results follow:
{"Target gene": "TEX55", "PubChem SID": "SID134319580", "CDH1-null / parental viability ratio": 1.05, "CDH1-null viability vs mock": 0.61}
{"Target gene": "KRT27", "PubChem SID": "SID152153510", "CDH1-null / parental viability ratio": 1.11, "CDH1-null viability vs mock": 1.15}
{"Target gene": "PRDM13", "PubChem SID": "SID134312163", "CDH1-null / parental viability ratio": 0.86, "CDH1-null viability vs mock": 0.31}
{"Target gene": "SLC30A7", "PubChem SID": "SID134312574", "CDH1-null / parental viability ratio": 1.02, "CDH1-null viability vs mock": 0.98}
{"Target gene": "CUZD1", "PubChem SID": "SID152152614", "CDH1-null / parental viability ratio": 1.24, "CDH1-null viability vs mock": 1.1}
{"Target gene": "CRYAB", "PubChem SID": "SID134314460", "CDH1-null / parental viability ratio": 0.76, "CDH1-null viability vs mock": 0.55}
{"Target gene": "RUNX1", "PubChem SID": "SID135620759", "CDH1-null / parental viability ratio": 0.9, "CDH1-null viability vs mock": 0.44}
{"Target gene": "ELOVL4", "PubChem SID": "SID134314844", "CDH1-null / parental viability ratio": 0.67, "CDH1-null viability vs mock": 0.47}
{"Target gene": "BCL2", "PubChem SID": "SID152150945", "CDH1-null / parental viability ratio": 0.89, "CDH1-null viability vs mock": 0.79}
{"Target gene": "COPS6", "PubChem SID": "SID134320982", "CDH1-null / parental viability ratio": 0.74, "CDH1-null viability vs mock": 0.77}
{"Target gene": "IL17RE", "PubChem SID": "SID152147101", "CDH1-null / parental viability ratio": 0.87, "CDH1-null viability vs mock": 0.66}
{"Target gene": "ZNF813", "PubChem SID": "SID135624407", "CDH1-null / parental viability ratio": 0.8, "CDH1-null viability vs mock": 0.8}
{"Target gene": "FBLN5", "PubChem SID": "SID134321546", "CDH1-null / parental viability ratio": 1.14, "CDH1-null viability vs mock": 0.58}
{"Target gene": "ZNF140", "PubChem SID": "SID134324985", "CDH1-null / parental viability ratio": 0.79, "CDH1-null viability vs mock": 0.6}
{"Target gene": "ACP5", "PubChem SID": "SID152151582", "CDH1-null / parental viability ratio": 1.35, "CDH1-null viability vs mock": 0.89}
{"Target gene": "PCDHGA12", "PubChem SID": "SID134315839", "CDH1-null / parental viability ratio": 0.99, "CDH1-null viability vs mock": 0.89}
{"Target gene": "OBSL1", "PubChem SID": "SID152147663", "CDH1-null / parental viability ratio": 1.07, "CDH1-null viability vs mock": 0.61}
{"Target gene": "MXRA7", "PubChem SID": "SID152153262", "CDH1-null / parental viability ratio": 1.08, "CDH1-null viability vs mock": 0.57}
